Assay results reported in the supplement of paper PMC3334620.
In all, about 33,000 sequences were measured (“E-score (-0.5 to 0.5)”: median about -0.0059, highest 2% from about 0.26 on). The list shows a part of the results.

target: T1, Cin5 (UniProt P40917); assay: PBM E-score (8-mer binding enrichment) (E-score (-0.5 to 0.5)); higher = stronger / more preferred TF binding; conditions: protein concentration: 100 nM; construct: GST-full length
T1 sequence: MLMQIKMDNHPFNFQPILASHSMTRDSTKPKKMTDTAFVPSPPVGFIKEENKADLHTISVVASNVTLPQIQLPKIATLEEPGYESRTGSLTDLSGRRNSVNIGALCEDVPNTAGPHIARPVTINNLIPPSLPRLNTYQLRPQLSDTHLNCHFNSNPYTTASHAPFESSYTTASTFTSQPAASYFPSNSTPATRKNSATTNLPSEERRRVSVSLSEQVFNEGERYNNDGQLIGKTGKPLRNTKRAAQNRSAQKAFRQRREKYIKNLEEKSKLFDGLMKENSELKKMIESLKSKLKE
Procedure, shortened: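 E-scores (a modified Wilcoxon-Mann-Whitney statistic) were assigned by the Universal PBM Analysis Suite to every ungapped eight-base word pooled with its reverse complement. The input came from universal all-10-mer Agilent arrays made double-stranded by primer extension and probed with GST-tagged yeast transcription factors at about 100-200 nM. Fluorescent anti-GST detected bound protein, and masliner normalised the scans.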

| Sequence | PBM E-score |
| --- | --- |
| ATCAGGAT | 0.0485 |
| CTTCAAAG | -0.213 |
| ACCCTAGA | 0.0475 |
| ACTAAAGA | -0.0785 |
| CAGTTTTA | 0.0232 |
| AGTTACCC | -0.085 |
| GCCAATGA | -0.126 |
| GACGCTGC | -0.177 |
| CGTGAGGA | -0.08 |
| ACTCAACA | 0.168 |
| GGACCGCA | -0.174 |
| AGACGCAG | -0.0878 |
| CTTACCGC | 0.0457 |
| CTACCAAC | -0.03 |
| TCGCTGAA | 0.205 |
| AACGTGCG | -0.0964 |
| ATAAGTGG | 0.0505 |
| CGCACCAC | -0.0513 |
| CTACTTCA | -0.0153 |
| GCGGACTA | -0.00614 |
| CGAATTAG | 0.171 |
| CACCTTCG | -0.164 |
| GGGTATAC | 0.0462 |
| ATGTAGGC | -0.0343 |
| ATACATTG | 0.162 |

| Sequence | PBM E-score |
| --- | --- |
| AGGCAACA | -0.126 |
| TCGCACAA | -0.00928 |
| AGGCGGAA | -0.0282 |
| GGGCGGTA | -0.169 |
| AAACCAAC | -0.0629 |
| ATTATAGG | 0.184 |
| ATCGTATA | 0.115 |
| AATTACAC | 0.0804 |
| CAAGTGCA | -0.208 |
| CAATAAGG | -0.0974 |
| GCAATTAC | 0.114 |
| TAATCAAA | 0.329 |
| AAACCTAT | -0.0458 |
| ATGGCGGC | -0.0372 |
| ACTGACCA | -0.174 |
| CCTCTACG | -0.288 |
| GCAGATCA | -0.116 |
| ACCAGGAT | 0.128 |
| CCTCCGGC | -0.19 |
| CTATATGA | 0.102 |
| TCCTGACA | 0.0835 |
| ACACCAAT | 0.239 |
| ATTCCTAG | -0.00114 |
| ACGGCTTG | -0.0627 |
| CGGTGTGC | -0.31 |

| Sequence | PBM E-score |
| --- | --- |
| ACTGTACA | -0.112 |
| TAAAAAAA | 0.0163 |
| GGTTGAGA | -0.0268 |
| TATCTGGA | -0.212 |
| ACTTCTAC | 0.0435 |
| AGCGTGTC | -0.223 |
| CGCCGACA | -0.0905 |
| CACGCCGC | -0.246 |
| AAGGCAGG | -0.0771 |
| AACGTGAG | -0.126 |
| CAGCCAAC | -0.0978 |
| CTATATAA | 0.0999 |
| AGCGGTAT | 0.158 |
| AATATTCT | 0.141 |
| CAGAACTG | 0.142 |
| CGGACCCA | -0.178 |
| AGGTCAAT | 0.13 |
| GTGCATCA | 0.00241 |
| AGAGCGTC | -0.139 |
| GGCAGCTA | 0.00359 |
| AAAGGCGA | -0.17 |
| GGCGCTAC | -0.319 |
| ACACGGTG | -0.117 |
| CGGATCGA | -0.0684 |
| CCAACCCA | -0.122 |

| Sequence | PBM E-score |
| --- | --- |
| ATTCAGGC | 0.0005 |
| CCACGGTC | -0.307 |
| ACGACCAT | -0.0488 |
| AATAAGGT | 0.16 |
| ATGATAAG | 0.204 |
| ACAAGCGT | -0.0311 |
| ATCTAGGA | -0.0915 |
| ACCAATTC | 0.129 |
| CGGCTCCA | -0.18 |
| CAAACAGA | 0.147 |
| ATTCCGCC | 0.215 |
| CCAGTGCG | -0.193 |
| CATGTTGC | -0.00801 |
| ATCTTTAG | 0.0503 |
| CCGATGAC | 0.0129 |
| CCACTCGG | -0.243 |
| TATACGCA | 0.105 |
| AGTCGCGC | 0.0623 |
| ACAGCGAT | -0.0662 |
| CGTCCTGC | -0.154 |
| CGATGACC | -0.0747 |
| CTGATGCA | 0.0452 |
| ATGAATCC | 0.0999 |
| GCATTCCA | -0.196 |
| ATGGTGAA | -0.0746 |

| Sequence | PBM E-score |
| --- | --- |
| AAAACTAA | 0.275 |
| CGCGAAAC | 0.13 |
| CGTACGTA | 0.132 |
| AGCGCAGA | -0.154 |
| CTCATATA | 0.0845 |
| CGCATCCC | -0.278 |
| GTTAAGTA | 0.168 |
| AATATCGA | 0.326 |
| CGCCGGTA | -0.0893 |
| CAGCCGAA | -0.0165 |
| CACGGGAG | -0.255 |
| ACGGGCCT | -0.373 |
| AAACTATT | 0.124 |
| GATCCGGC | -0.00016 |
| CAATAGGA | -0.124 |
| CGAACCCG | -0.162 |
| ACAAACGC | 0.0649 |
| ACGCCGAA | -0.0631 |
| CATCAATA | 0.139 |
| CGAAACCA | 0.0433 |
| ACCGATAT | -0.0255 |
| AACATTAC | 0.148 |
| AACAACAC | 0.235 |
| CCATTCGG | -0.0124 |
| AAGAGACT | -0.225 |

| Sequence | PBM E-score |
| --- | --- |
| AGATATCT | -0.0465 |
| CTCGGTAA | -0.0199 |
| AGATGGGC | -0.0732 |
| TAGTAATA | 0.27 |
| ACTACCAT | 0.0887 |
| ACTAGGGA | -0.0822 |
| AAGCTTAT | 0.231 |
| CAAAGTAC | -0.0568 |
| CACGAATA | 0.225 |
| AATTAAAC | 0.203 |
| AGGCTTAG | 0.0724 |
| GCAAGGAA | -0.0209 |
| ACCCGTAT | -0.0338 |
| GCGTCTAC | -0.146 |
| AGATTCTA | 0.00296 |
| ATACTACG | 0.108 |
| CAGCCATC | 0.022 |
| AGCGGGCG | -0.0666 |
| CAGGTCGG | -0.116 |
| GCAGGAGA | -0.109 |
| ACCACTTA | -0.00102 |
| CTATCCGC | 0.151 |
| GACCCAGC | -0.271 |
| CTTATTGA | 0.125 |
| ATGCGGCA | 0.0715 |

| Sequence | PBM E-score |
| --- | --- |
| GATCGCTA | 0.021 |
| GCACTGGA | -0.0638 |
| AAAGTAGA | 0.0339 |
| CTCGACGA | -0.0716 |
| CCTGCTCG | -0.226 |
| CTCAGGGA | -0.0496 |
| GCCAATCC | -0.0446 |
| CGGCGGAG | -0.0743 |
| GCAATTTA | 0.137 |
| AGAGTGCC | -0.0683 |
| CTAAGGGC | -0.112 |
| AAACGCAT | -0.113 |
| TATGATAA | 0.252 |
| TCGGGAAA | 0.141 |
| GTCTAATA | 0.0261 |
| ATAATCAA | 0.227 |
| ATTTGACA | 0.0242 |
| CCATCCGA | 0.0754 |
| CGGATAAA | 0.246 |
| CCCGACTA | -0.121 |
| AGGCTCGG | -0.215 |
| CAGCGCAC | -0.179 |
